Article PMC3589453, “Structural Characterization of the Self-Association of the Death Domain of p75^NTR” (PLoS ONE, 2013)
Results are given in words; binding and its absence hold for the method and conditions named. Some results given as binding are weak or reduced against the parent protein; the word gives no strength.

Assays:
[1] = biological target: full-length rat p75NTR C257A with N-terminal HA tag (rat) (UniProt P07174); assay: immunoprecipitation and non-reducing SDS-PAGE immunoblot; HA-p75NTR in transfected HEK 293T cells without ligand; lysate in 40 mM Tris pH 7.6, 150 mM NaCl, 0.5% NP-40, 10% glycerol; anti-HA immunoprecipitates boiled with or without DTT, blotted with anti-HA
[2] = biological target: full-length rat p75NTR C257A/C379S with N-terminal HA tag (rat) (UniProt P07174); assay: as above
[3] = biological target: full-length rat p75NTR C379S with N-terminal HA tag (rat) (UniProt P07174); assay: as above
[4] = biological target: p75CTD monomer (p75CTD C379S/C416S) (rat) (UniProt P07174); assay: SEC; purified p75NTR constructs and their mutants on a Superdex 75 column; monomer and dimer peaks; some runs with beta-ME or DTNB; both purified

## full-length rat p75NTR C257A with N-terminal HA tag (from UniProt P07174 30-425) (receptor)
[1]
  binding: binds

## full-length rat p75NTR C257A/C379S with N-terminal HA tag (from UniProt P07174 30-425) (receptor)
[2]
  binding: binds weakly

## full-length rat p75NTR C379S with N-terminal HA tag (from UniProt P07174 30-425) (receptor)
[3]
  binding: binds

B1: p75CTD monomer (p75CTD C379S/C416S) (domain or fragment, UniProt P07174 334-425)
chain: GNLYSSLPLTKREEVEKLLNGDTWRHLAGELGYQPEHIDSFTHEASPVRALLASWGAQDSATLDALLAALRRIQRADIVESLSSESTATSPV
modifications: biotinylated for the BLI assay
[4]
  binding: no binding
